In the supplement of paper PMC12282887:
± gives the standard deviation of the averaged measurements. These are raw signals, not scaled to a control.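 For antimicrobials the highest concentration approximated the MIC. Most other compounds topped out at 500 µM, and known inducer-like compounds reached up to 1 mM. Inocula for deletion strains were tenfold smaller, and any well growing below 10% of the overall median was considered non-growing.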

Test system: Escherichia coli BW25113
Assay: growth (OD600 area under curve, 8 h) (OD600 x h); higher = more growth
Description: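 E. coli BW25113 reporter strains (wild type, ΔmarA, ΔsoxS, Δrob, each carrying one of 8 lux reporter plasmids) were grown in 40 µl LB in 384-well plates at 37°C, 800 rpm, with each compound at 4 two-fold concentrations, in biological duplicates. Growth is the baseline-corrected OD600 area under the curve over 8 h (0-8 h WT, 1-9 h deletion strains).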

COc1ccc2cc3[n+](cc2c1OC)CCc1cc2c(cc1-3)OCO2 [Berberine]
growth
Conditions	reporter plasmid: EVC	reporter plasmid: acrABp	reporter plasmid: marRABp	reporter plasmid: micFp	reporter plasmid: ompFp	reporter plasmid: robp	reporter plasmid: soxSp	reporter plasmid: tolCp
21 µg/ml, genetic background: wild type	2.82 ± 0.074	2.84 ± 0.12	3.14 ± 0.13	3.22 ± 0.31	2.961 ± 0.022	3.25 ± 0.21	3.07 ± 0.034	2.94 ± 0.2
21 µg/ml, genetic background: ΔmarA	2.81 ± 0.32	3.61 ± 0.58	3.12 ± 0.13	3.2 ± 0.88	3.2 ± 1	3.01 ± 0.49	2.53 ± 0.58	2.66 ± 0.32
21 µg/ml, genetic background: Δrob	2.58 ± 1.1	2.81 ± 0.09	3 ± 0.057	3.05 ± 0.14	2.43 ± 0.63	2.308 ± 0.012	2.79 ± 0.46	3.04 ± 0.21
21 µg/ml, genetic background: ΔsoxS	3.01 ± 0.25	3.11 ± 0.38	3.05 ± 0.82	2.77 ± 0.12	2.84 ± 0.11	2.87 ± 0.29	3.14 ± 0.29	2.96 ± 0.23
42 µg/ml, genetic background: wild type	2.64 ± 0.095	2.87 ± 0.34	3.15 ± 0.19	3.05 ± 0.14	2.95 ± 0.17	3.123 ± 0.015	2.92 ± 0.11	2.869 ± 0.0054
42 µg/ml, genetic background: ΔmarA	2.71 ± 0.28	3.71 ± 0.36	3.077 ± 0.019	3.02 ± 0.78	3.2 ± 0.95	3.09 ± 0.45	2.54 ± 0.7	2.52 ± 0.16
42 µg/ml, genetic background: Δrob	2.54 ± 0.85	3 ± 0.12	3.12 ± 0.15	2.95 ± 0.03	2.22 ± 0.58	2.31 ± 0.18	2.66 ± 0.14	2.95 ± 0.27
42 µg/ml, genetic background: ΔsoxS	3.0233 ± 0.0012	2.93 ± 0.55	2.96 ± 0.8	2.38 ± 0.19	2.71 ± 0.27	3.12 ± 0.19	3.08 ± 0.22	2.9 ± 0.21
84.1 µg/ml, genetic background: wild type	2.44 ± 0.15	2.85 ± 0.4	3.04 ± 0.43	2.78 ± 0.25	2.87 ± 0.33	3.0165 ± 0.0027	2.76 ± 0.041	2.85 ± 0.13
84.1 µg/ml, genetic background: ΔmarA	2.71 ± 0.28	3.86 ± 0.59	3.29 ± 0.17	2.94 ± 0.75	3.31 ± 0.75	3.3 ± 0.5	2.42 ± 0.76	2.63 ± 0.059
84.1 µg/ml, genetic background: Δrob	2.49 ± 0.79	2.85 ± 0.085	3.21 ± 0.15	2.76 ± 0.21	2.31 ± 0.53	2.39 ± 0.22	2.57 ± 0.18	2.73 ± 0.36
84.1 µg/ml, genetic background: ΔsoxS	2.81 ± 0.32	2.76 ± 0.79	3.05 ± 0.77	2.45 ± 0.033	2.63 ± 0.64	2.96 ± 0.067	2.84 ± 0.55	2.51 ± 0.18
168.2 µg/ml, genetic background: wild type	2.57 ± 0.16	2.82 ± 0.47	3.11 ± 0.32	2.823 ± 0.025	2.73 ± 0.37	2.9 ± 0.054	2.72 ± 0.041	2.71 ± 0.13
168.2 µg/ml, genetic background: ΔmarA	2.6 ± 0.25	3.75 ± 0.57	3.02 ± 0.29	2.62 ± 0.54	3.03 ± 0.82	3.03 ± 0.21	2.07 ± 0.55	2.29 ± 0.23
168.2 µg/ml, genetic background: Δrob	2.47 ± 0.63	2.63 ± 0.12	3.07 ± 0.074	2.7 ± 0.11	2.17 ± 0.59	2.12 ± 0.22	2.48 ± 0.19	2.47 ± 0.28
168.2 µg/ml, genetic background: ΔsoxS	2.62 ± 0.57	2.75 ± 0.73	2.87 ± 0.66	1.72 ± 0.13	2.35 ± 0.63	2.84 ± 0.1	2.79 ± 0.13	2.535 ± 0.025

CCCC(=O)O [Butyrate]
growth
Conditions	reporter plasmid: EVC	reporter plasmid: acrABp	reporter plasmid: marRABp	reporter plasmid: micFp	reporter plasmid: ompFp	reporter plasmid: robp	reporter plasmid: soxSp	reporter plasmid: tolCp
6.9 µg/ml, genetic background: wild type	2.8 ± 0.13	3.28 ± 0.053	3.3991 ± 0.0031	3.08 ± 0.37	3.19 ± 0.17	3.36 ± 0.2	2.93 ± 0.054	3.11 ± 0.14
6.9 µg/ml, genetic background: ΔmarA	3.34 ± 0.54	3.87 ± 0.29	3.75 ± 0.56	3.22 ± 0.55	3.44 ± 0.74	3.77 ± 0.28	2.73 ± 0.64	2.77 ± 0.21
6.9 µg/ml, genetic background: Δrob	3.08 ± 0.44	3.05 ± 0.072	3.3 ± 0.061	3.31 ± 0.34	2.7 ± 0.39	2.68 ± 0.36	2.85 ± 0.29	3.07 ± 0.48
6.9 µg/ml, genetic background: ΔsoxS	3.11 ± 0.28	3.05 ± 0.79	3.08 ± 0.68	2.63 ± 0.45	3.22 ± 0.18	3.28 ± 0.3	3.09 ± 0.35	3.07 ± 0.21
13.8 µg/ml, genetic background: wild type	2.54 ± 0.34	3.22 ± 0.13	3.35 ± 0.079	2.98 ± 0.42	3.11 ± 0.24	3.305 ± 0.032	2.8 ± 0.04	2.89 ± 0.029
13.8 µg/ml, genetic background: ΔmarA	3.08 ± 0.64	4.1 ± 0.35	3.42 ± 0.26	3.03 ± 0.74	3.33 ± 0.9	3.5 ± 0.34	2.44 ± 0.58	2.69 ± 0.17
13.8 µg/ml, genetic background: Δrob	2.95 ± 0.62	2.81 ± 0.1	3.33 ± 0.25	3.12 ± 0.25	2.65 ± 0.42	2.69 ± 0.37	2.86 ± 0.28	3.04 ± 0.41
13.8 µg/ml, genetic background: ΔsoxS	2.95 ± 0.14	2.98 ± 0.67	3.13 ± 0.8	2.53 ± 0.5	2.89 ± 0.53	3.16 ± 0.54	3.02 ± 0.28	3.13 ± 0.25
27.5 µg/ml, genetic background: wild type	2.49 ± 0.12	3.14 ± 0.3	3.27 ± 0.13	2.95 ± 0.17	3.03 ± 0.26	3.24 ± 0.089	2.776 ± 0.0051	2.8 ± 0.13
27.5 µg/ml, genetic background: ΔmarA	3.04 ± 0.25	3.78 ± 0.28	3.43 ± 0.19	2.9 ± 0.6	3.54 ± 0.59	3.64 ± 0.38	2.51 ± 0.7	2.62 ± 0.32
27.5 µg/ml, genetic background: Δrob	2.92 ± 0.64	2.9 ± 0.12	3.24 ± 0.067	2.97 ± 0.25	2.74 ± 0.47	2.59 ± 0.39	2.47 ± 0.3	2.82 ± 0.4
27.5 µg/ml, genetic background: ΔsoxS	2.78 ± 0.083	2.81 ± 0.84	3.18 ± 0.8	2.54 ± 0.039	3 ± 0.71	3 ± 0.2	2.88 ± 0.45	2.82 ± 0.088
55 µg/ml, genetic background: wild type	2.41 ± 0.23	2.95 ± 0.34	3.24 ± 0.13	2.74 ± 0.39	2.93 ± 0.29	3.32 ± 0.12	2.772 ± 0.0065	2.79 ± 0.14
55 µg/ml, genetic background: ΔmarA	2.75 ± 0.1	3.73 ± 0.19	3.41 ± 0.06	3 ± 0.68	3.25 ± 0.81	3.43 ± 0.37	2.19 ± 0.31	2.623 ± 0.0092
55 µg/ml, genetic background: Δrob	2.83 ± 0.7	2.836 ± 0.018	3.12 ± 0.41	2.77 ± 0.58	2.4 ± 0.25	2.48 ± 0.42	2.44 ± 0.34	2.84 ± 0.32
55 µg/ml, genetic background: ΔsoxS	2.89 ± 0.3	2.72 ± 0.84	3.09 ± 0.79	2.51 ± 0.083	2.84 ± 0.75	2.93 ± 0.54	2.68 ± 0.64	2.82 ± 0.26
